Results from the supplement of paper PMC7024190.
Where a name gives a salt, the structure may show the parent alone. This is one part of the list. Repeats in this data set agree poorly, so a single value says little.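 The cells were human embryonic kidney cells carrying a Renilla luciferase gene, driven by the HSV-TK promoter, on a plasmid put in briefly by transfection. This is the first-round screen of about ten thousand compounds, looking for ones that raise reporter output.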

Each compound was assayed on HEK 293FT (assay: log relative Renilla luciferase luminescence (reporter expression vs reference, reference not stated) (log (base not stated)); higher = higher recombinant reporter expression). Details: 10 µM; time after transfection 48 h.
Work on `Cc1cc(NS(=O)(=O)c2ccc(N)cc2)no1` [Sulfamethoxazole] yielded a log of 0.0438.
Compound `O=C(O)CCCNC(=O)c1ccncc1` [Isonicotinoyl Gaba] has a log of 0.224.
`COc1c(C(C)C)oc2cc3oc(=O)ccc3cc12` [Peucedanin] gave a log of -0.305.
Compound `C[C@@H]1CCC[C@H](C)N1NC(=O)c1ccc(Cl)c(S(N)(=O)=O)c1` [Clopamide] has a log of -0.089.
`CCCCC(=O)N(Cc1ccc(-c2ccccc2-c2nnn[nH]2)cc1)[C@H](C(=O)O)C(C)C` [Valsartan] showed a log of 0.102.
In the case of `CC(C)CCOC(=O)c1ccccc1O` [Isopentyl Salicylate], the log is reported as 0.0942.
`CCC(N)C12CC3CC(CC(C3)C1)C2` (centres undefined) [Adapromin] was tested, and the log was -0.176.
`OC(C#CCN1CCCC1)(c1ccccc1)c1ccccc1` [Butinoline] showed a log of -0.204.
`CC(C)NCC(O)COc1ccc(CCOCC2CC2)cc1` (centres undefined) [Betaxolol Hydrochloride] was tested, and the log was -0.0912.
Work on `O=C(/C=C/C=C/c1ccc2c(c1)OCO2)N1CCCCC1` [Piperine] yielded a log of 0.0937.
For `CC(=O)OCc1c(COC(C)=O)[n+](=O)c2ccccc2n1[O-]` [Quinoxidine], the log was 0.125.
`C#Cc1cccc(Nc2ncnc3cc(OCCOC)c(OCCOC)cc23)c1` [Erlotinib Hydrochloride] gave a log of -0.0491.
Work on `CN[C@@H](CC(C)C)C(=O)N[C@H]1C(=O)N[C@H](CC(N)=O)C(=O)N[C@H]2C(=O)N[C@H]3C(=O)N[C@@H](C(=O)NC(C(=O)O)c4cc(O)cc(O)c4-c4cc3ccc4O)[C@@H](O[C@H]3C[C@](C)(N)[C@H](O)[C@@H](C)O3)c3ccc(cc3)Oc3cc2cc(c3O[C@H]2O[C@@H](CO)[C@@H](O)[C@H](O)[C@@H]2O[C@H]2C[C@](C)(N)[C@H](O)[C@@H](C)O2)Oc2ccc(cc2)[C@@H]1O` (some centres undefined) [Orienticin C] yielded a log of 0.000715.
`O=C1c2c(O)cc(O)cc2O[C@H](c2cc(O)c(O)c(O)c2)[C@H]1O` showed a log of 0.0932.
For `Cc1ncc(CSSCc2cnc(C)c(O)c2CO)c(CO)c1O` [Pyritinol], the log was -0.0904.
Compound `CCOC(=O)c1c(C)n(-c2ccccc2)c2ccc(O)cc12` [Oxyphemedol] has a log of 0.104.
`CC(=O)OCC(=O)[C@@]1(O)CC[C@H]2[C@@H]3CCC4=CC(=O)C=C[C@]4(C)[C@H]3[C@@H](O)C[C@@]21C` [Prednisolone acetate] gave a log of -0.193.
With `Nc1ncnc2[nH]c(=O)[nH]c12` [8-Oxoadenine] the log was -0.133.
`COc1ccc2c(c1)CC[C@@H]1[C@@H]2CC[C@]2(C)[C@@H](O)CC[C@@H]12` [Estradiol-3-methyl-ether] was tested, and the log was 0.0932.
Compound `NC12CC3CC(CC(C3)C1)C2` [Amantadine] has a log of 0.00781.
`NC(=O)N1CCCC1=O` [Squamolone] gave a log of -0.0767.
`O[C@@H]1CO[C@H]2[C@@H]1OC[C@@H]2O` [Isosorbide] was tested, and the log was 0.141.
In the case of `CN(C)CC/C=C1/c2ccccc2Sc2ccc(Cl)cc21` [Chlorprothixene], the log is reported as 0.0785.
With `COc1cc2c(cc1OC)C(=O)Cc1ccc3c(c1CN(C)CC2)OCO3` [Cryptopine] the log was -0.169.
`CC(O)(P(=O)(O)O)P(=O)(O)O` [Etidronate] was tested, and the log was -0.0586.
Compound `Nc1nc(=O)[nH]c2c1ncn2[C@@H]1O[C@H](CO)[C@@H](O)[C@H]1O` [Isoguanosine] has a log of 0.0659.
Compound `OC[C@@H](O)[C@H](O)[C@H](O)[C@@H](O)CO` [Galactitol] has a log of 0.233.
`CCc1nnc(NS(=O)(=O)c2ccc(N)cc2)s1` [Sulfaethidole] was tested, and the log was -0.0478.
`O=c1cc(-c2ccc(O)c(O)c2)oc2cc(O[C@@H]3O[C@H](CO)[C@@H](O)[C@H](O)[C@H]3O)cc(O)c12` [Cynaroside] showed a log of 0.115.
In the case of `CCN[C@H]1C[C@H](C)S(=O)(=O)c2sc(S(N)(=O)=O)cc21` [Dorzolamide Hydrochloride], the log is reported as 0.0643.
Compound `COc1ccc(-c2oc3c(CC=C(C)C)c(O[C@@H]4O[C@H](CO)[C@@H](O)[C@H](O)[C@H]4O)cc(O)c3c(=O)c2O[C@@H]2O[C@@H](C)[C@H](O)[C@@H](O)[C@H]2O)cc1` [Icariin] has a log of -1.02.
`COC(=O)C1=C(C)NC(C)=C(C(=O)OC(C)(C)CN(C)CCC(c2ccccc2)c2ccccc2)C1c1cccc([N+](=O)[O-])c1` (centres undefined) [Lercanidipine Hydrochloride] was tested, and the log was -0.0795.
In the case of `COc1ccc(/C=C/C(=O)O)cc1O` [Isoferulic acid], the log is reported as 0.0659.
Work on `COc1ccc(C(=O)c2ccc(OC)cc2O)c(O)c1` yielded a log of 0.0669.
`CCCCCc1c2c(cc(O)c1C(=O)O)OC(=O)c1c(cc(OC)cc1C(=O)CCCC)O2` [Lobaric acid] was tested, and the log was -0.0484.
For `O=C(N/N=C/c1cccc(O)c1)c1ccncc1` [Acroteben], the log was 0.0351.
`COc1ccccc1OC(=O)c1cc(-c2ccccc2)nc2ccccc12` [Guaiacol cinchophenate] showed a log of -0.0071.
`O=C(N/N=C/c1ccccc1O)c1ccccc1O` [Salicylidene salicylhydrazide] was tested, and the log was 0.193.
With `N#CC1=C(N)Oc2c(ccc3ccccc23)C1c1cccc([N+](=O)[O-])c1` (centres undefined) the log was -1.02.
